{
  "sequences": {"note": "By UniProt entry, the sequences of proteins in these tests, tags left out.", "UniProt P11473, whole entry, looked up": "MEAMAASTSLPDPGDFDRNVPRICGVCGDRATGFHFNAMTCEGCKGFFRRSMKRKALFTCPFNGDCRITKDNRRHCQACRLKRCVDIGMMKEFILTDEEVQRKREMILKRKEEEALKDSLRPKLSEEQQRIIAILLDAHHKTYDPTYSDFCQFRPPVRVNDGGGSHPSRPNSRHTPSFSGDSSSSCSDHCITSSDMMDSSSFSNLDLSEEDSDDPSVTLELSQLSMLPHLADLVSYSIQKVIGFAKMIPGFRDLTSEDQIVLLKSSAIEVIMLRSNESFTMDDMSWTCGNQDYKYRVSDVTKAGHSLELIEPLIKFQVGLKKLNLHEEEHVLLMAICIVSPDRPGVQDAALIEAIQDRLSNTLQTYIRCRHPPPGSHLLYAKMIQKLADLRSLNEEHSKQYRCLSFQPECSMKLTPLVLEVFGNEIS"},
  "source": "PubChem BioAssay AID504847",
  "about": "(National Center for Advancing Translational Sciences (NCATS), 2011)",
  "note": "Values joined by “and” are separate entries in the source; they are usually repeats but may differ in a detail not shown here. Equal entries are not always repeated. Out of some 400,000 compounds screened, about 3,700 (0.93%) were called active. Inconclusive means that the source gave no clear call. Such entries were picked first, then a sample of the others. The call rests on the fitted dose curve; in most records, active means well fitted inhibition curve with a large enough effect; inconclusive means small, poorly fitted or top-dose-only effect, or another doubt; inactive means no such curve, though single readings can be large or run the other way. Potencies of inconclusive entries are doubtful fits and often do not repeat. On the % scale 0 is the no-effect control and ±100 the full control effect; potency means the concentration at half of the fitted maximal effect.",
  "data": [
    {"target": "Vitamin D3 receptor (Homo sapiens) (UniProt P11473)", "experiment": "Inhibitors of the vitamin D receptor (VDR): qHTS", "conditions": "VDR-SRC2-3 peptide fluorescence polarization, 2 h; max response, negative = inhibition: hits give low values", "outline": "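Inhibition of the VDR/SRC2-3 peptide interaction is quantified by fluorescence polarization. Compounds (23 nl, pintool) incubate with the reagents for 2 hours at ambient room temperature.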", "values": [
      {"compound": "Cc1ccc(NC(=O)Nc2cccc(Cl)c2)c(C(=O)O)c1", "Potency": "inconclusive: 39.8 µM [inhibitor, partial curve, poor fit]"},
      {"compound": "COc1ccc([C@@H](C)C(=O)c2ccc(O)cc2O)cc1", "max response, negative = inhibition": "inactive: -3.6%"},
      {"compound": "CC1(C)CC(=O)C2=C(C1)OC(N)=C(C#N)C2c1cc2c(cc1[N+](=O)[O-])OCO2", "note": "(configuration not stated)", "Potency": "inconclusive: 89.1 µM [inhibitor, single point]"},
      {"compound": "CCN1CCN(c2ncc3c(n2)CCN(Cc2cc(Br)cs2)C3)CC1", "max response, negative = inhibition": "inactive: -3.83%"},
      {"compound": "COc1cc(N/C(N)=N/c2nc(C)cc(C)n2)c(OC)cc1Cl", "max response, negative = inhibition": "inactive: -8.5%"},
      {"compound": "COc1ccccc1NC(=O)c1cc2cc(Br)ccc2cc1O", "Potency": "inconclusive: 50.1 µM [inhibitor, partial curve, poor fit]"},
      {"compound": "O=C(CSc1nnnn1-c1ccc(F)cc1)NC1CCCCC1", "Potency": "inconclusive: 56.2 µM [inhibitor, partial curve, poor fit]"},
      {"compound": "COC1C=COC2(C)Oc3c(C)c(O)c4c(O)c(c(CN5CCN(C)CC5)c(O)c4c3C2=O)NC(=O)C(C)=CC=CC(C)C(O)C(C)C(O)C(C)C(OC(C)=O)C1C", "note": "(configuration not stated)", "Potency": "inconclusive: 100 µM [inhibitor, single point]"},
      {"compound": "Cc1onc(-c2ccccc2)c1C(=O)Nc1nnc(COc2ccc(Cl)cc2)s1", "Potency": "active: 20 µM"},
      {"compound": "Oc1ccc(-c2nc(-c3ccc(F)cc3)c(-c3ccncc3)[nH]2)cc1", "max response, negative = inhibition": "inactive: -19.8% and inactive: -15.2%"},
      {"compound": "Cc1ccc(-n2cc(CN3CCNC(=O)CC3)c(-c3cccc(C)c3)n2)cc1", "Potency": "inconclusive: 89.1 µM [inhibitor, single point]"},
      {"compound": "O=C(CSc1ccsc1[N+](=O)[O-])N1CCN(c2ccc(Cl)cc2)CC1", "max response, negative = inhibition": "inactive: 1.54%"},
      {"compound": "O=C(CSc1nccn(-c2cccc(F)c2)c1=O)Nc1ccc(Cl)cc1F", "Potency": "active: 89.1 µM"},
      {"compound": "CN(C)c1ccc(N/C(N)=N/c2nc(C(F)(F)F)cc(C(F)(F)F)n2)cc1", "Potency": "inconclusive: 100 µM [inhibitor, partial curve, poor fit]"},
      {"compound": "OC(CCc1cccc(Cl)c1)c1cccs1", "note": "(configuration not stated)", "Potency": "inconclusive: 63.1 µM [inhibitor, partial curve, poor fit]"},
      {"compound": "CN1CCN(c2nc(-c3ccccn3)nc3ccccc23)CC1", "max response, negative = inhibition": "inactive: -5.68%"},
      {"compound": "COc1ccc(NC(=O)CSc2nc3ccccc3c(=O)n2CCCO)cn1", "Potency": "inconclusive: 100 µM [inhibitor, single point]"},
      {"compound": "Cc1ccc(CCNS(=O)(=O)c2ccc(C)cc2)cc1", "max response, negative = inhibition": "inactive: 29.7%"},
      {"compound": "S=C(Nc1ccc2cn[nH]c2c1)Nc1ccc(Cl)cc1Cl", "Potency": "inconclusive: 79.4 µM [inhibitor, single point]"},
      {"compound": "O=C(/C=C/c1c(F)cccc1Cl)c1ccc(F)cc1", "Potency": "active: 44.7 µM"},
      {"compound": "CCO[C@@H]1OC(C(=O)NC2CC2)=C[C@H](C)[C@H]1CCCO", "Potency": "inconclusive: 39.8 µM [inhibitor, partial curve, poor fit]"},
      {"compound": "COc1ccccc1NC(=O)C1CCCCC1", "Potency": "inconclusive: 4.47 µM [inhibitor, full curve, poor fit]"},
      {"compound": "Cc1sc(NC(=O)c2cccs2)nc1-c1ccccc1", "max response, negative = inhibition": "inactive: 10.9%"},
      {"compound": "Cc1ccc(C([O-])=C(C(=S)NCc2ccccc2)[n+]2cccc(CO)c2)cc1[N+](=O)[O-]", "Potency": "inconclusive: 11.2 µM [inhibitor, full curve]"},
      {"compound": "COc1cc2c(cc1OC)/C(=C/C(=O)c1ccccc1F)NCC2", "max response, negative = inhibition": "inactive: -2.53%"},
      {"compound": "Nc1nc(NCc2ccco2)nc(N2CCCC2)c1[N+](=O)[O-]", "max response, negative = inhibition": "inactive: -2.72%"},
      {"compound": "c1csc(CNc2nc(-c3ccc4c(c3)OCO4)nc3ccccc23)c1", "Potency": "inconclusive: 28.2 µM [inhibitor, partial curve]"},
      {"compound": "Cc1ccccc1OCC(O)Cn1c(=N)n(CCN2CCOCC2)c2ccccc21", "note": "(configuration not stated)", "Potency": "inconclusive: 100 µM [inhibitor, single point]"},
      {"compound": "CC[C@H](C)/C=C(C)/C=C/C1=CC2=CC(=O)[C@]3(C)OC(=O)[C@@H](C(C)=O)[C@@H]3C2=CO1", "Potency": "inconclusive: 8.91 µM [inhibitor, full curve, poor fit]"},
      {"compound": "CCOc1cc(OCC)cc(C(=O)NCc2ccco2)c1", "Potency": "inconclusive: 50.1 µM [inhibitor, partial curve]"},
      {"compound": "COc1ccccc1-c1cc(C(F)(F)F)nc(S(=O)(=O)CCCC(=O)Nc2cccnc2Cl)n1", "Potency": "inconclusive: 20 µM [inhibitor, single point]"},
      {"compound": "Cc1ccc(S(=O)OCC(=O)Nc2cc(Cl)ccc2N2CCOCC2)cc1", "note": "(configuration not stated)", "Potency": "inconclusive: 39.8 µM [inhibitor, single point]"},
      {"compound": "CCn1c(C)cc(C)c(C#N)c1=O", "max response, negative = inhibition": "inactive: 7.67%"},
      {"compound": "CC1=NNC(=O)/C1=C\\c1cn(-c2ccccc2)nc1-c1ccccc1", "Potency": "inconclusive: 17.8 µM [inhibitor, partial curve, poor fit]"},
      {"compound": "COc1ccc(C(=O)NCCc2nnc3ccc(SCC(=O)NCc4ccccc4)nn23)cc1", "Potency": "inconclusive: 79.4 µM [inhibitor, single point]"},
      {"compound": "CC(=O)Nc1ccc(NC(=S)NC(=O)/C=C/c2ccco2)cc1", "Potency": "inconclusive: 50.1 µM [inhibitor, partial curve, poor fit]"},
      {"compound": "Cc1ccc(CN2CCNC(=O)C2CC(=O)NC2CCCCCC2)cc1", "note": "(configuration not stated)", "Potency": "inconclusive: 89.1 µM [inhibitor, single point]"},
      {"compound": "O=C(COC(=O)C1CCN(S(=O)(=O)c2cccs2)CC1)Nc1ccc(F)c(F)c1F", "Potency": "inconclusive: 79.4 µM [inhibitor, single point]"},
      {"compound": "Cc1cccc(NC(=O)CSc2nc3c(oc4ccccc43)c(=O)n2Cc2ccco2)c1", "max response, negative = inhibition": "inactive: -12.9%"},
      {"compound": "COc1ccccc1CN1CC[C@@]2(CCCN(C(=O)c3c(C)noc3C)C2)C1", "Potency": "inconclusive: 89.1 µM [inhibitor, single point]"},
      {"compound": "Cc1ccc(NC(=S)Nc2cccc3cnccc23)cc1", "Potency": "inconclusive: 100 µM [inhibitor, single point]"},
      {"compound": "COc1ccc(OC)c(S(=O)(=O)Nc2cc3c(cc2N2CCCC2)n(C)c(=O)c(=O)n3C)c1", "Potency": "inconclusive: 39.8 µM [inhibitor, single point]"}
    ]}
  ]
}
